No constants are given. Whether binding was seen depends on the method and setting. Binding seen in cells or lysates may run through a third protein. Where a sequence is shown, tags or fusion partners need not be part of it.

Sequences of proteins named here, by UniProt entry; tags and fusion partners are left off. Residues count along the entry.
UniProt P35951, residues 22-862: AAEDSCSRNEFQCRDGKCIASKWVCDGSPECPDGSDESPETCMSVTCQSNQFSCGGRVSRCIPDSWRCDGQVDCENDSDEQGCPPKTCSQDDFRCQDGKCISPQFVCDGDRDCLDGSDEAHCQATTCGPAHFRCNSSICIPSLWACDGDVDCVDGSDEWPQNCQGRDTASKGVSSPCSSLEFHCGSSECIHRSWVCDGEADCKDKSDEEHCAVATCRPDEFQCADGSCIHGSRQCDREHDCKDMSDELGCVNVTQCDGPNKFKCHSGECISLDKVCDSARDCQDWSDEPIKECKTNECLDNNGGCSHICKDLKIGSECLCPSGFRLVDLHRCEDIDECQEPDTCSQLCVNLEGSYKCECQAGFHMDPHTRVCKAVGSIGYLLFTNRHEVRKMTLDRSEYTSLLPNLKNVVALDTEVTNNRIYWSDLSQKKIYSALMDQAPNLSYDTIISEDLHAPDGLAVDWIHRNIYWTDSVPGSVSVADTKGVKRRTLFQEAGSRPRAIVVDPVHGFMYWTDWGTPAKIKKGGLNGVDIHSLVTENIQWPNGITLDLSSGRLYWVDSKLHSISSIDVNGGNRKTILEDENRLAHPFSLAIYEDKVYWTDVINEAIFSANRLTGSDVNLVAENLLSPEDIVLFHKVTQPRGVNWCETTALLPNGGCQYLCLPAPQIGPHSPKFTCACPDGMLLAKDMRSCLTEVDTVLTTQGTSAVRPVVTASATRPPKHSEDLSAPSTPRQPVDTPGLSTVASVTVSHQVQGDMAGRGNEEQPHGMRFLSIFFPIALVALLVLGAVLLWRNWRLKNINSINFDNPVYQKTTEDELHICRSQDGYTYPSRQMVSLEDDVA

The target of the experiment is T1, GST-PID1 fusion protein (murine phosphotyrosine interacting domain-containing protein 1) (mouse) (UniProt Q3UBG2).
T1 sequence: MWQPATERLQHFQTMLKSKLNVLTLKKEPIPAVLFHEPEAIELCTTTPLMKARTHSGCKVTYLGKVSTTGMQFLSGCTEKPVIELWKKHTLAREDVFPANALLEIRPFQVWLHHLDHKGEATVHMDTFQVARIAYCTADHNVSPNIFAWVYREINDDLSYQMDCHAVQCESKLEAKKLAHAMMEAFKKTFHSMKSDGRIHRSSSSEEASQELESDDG
Kind of experiment: pull-down; GST-PID1 incubated over night at 4 °C with liver lysates (150 μg) of wild type, LRP1 knockin or liver-specific Lrp1-/- mice; washed six times with PBS; Western blot; only the target purified.

Consider “low-density lipoprotein receptor (LDLR), endogenous in wild type mouse liver (from UniProt P35951 22-862)”, for which the binding result is listed as “no binding”.

The record behind these values is publication PMC6158030.
